From the supplement of paper PMC12009310
Where a name gives a salt, the structure may show the parent alone. ± gives the standard deviation of the averaged measurements. The list shows a part of the results. Part of the spread comes from offsets between plates or batches.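 A mouse kidney inner medullary collecting duct cell line was silenced for the ciliary gene Rpgrip1l or given non-targeting control siRNA. Primary scores average two runs versus batch controls. In follow-up screening, hits raised cilia at least 2 over matched controls; compounds lowering cell number by 2 or more were excluded. The cells are a mouse kidney inner medullary collecting duct line, silenced either for the ciliary gene Rpgrip1l or with a non-targeting control siRNA.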

How the values were obtained:
mIMCD3 [1] = assay: robust z score of cell number vs plate controls; higher = more cells (less cytotoxic); details: 10 µM, 48 h
mIMCD3 [2] = assay: robust z score of cilia incidence (% cells with single cilium) vs plate controls; higher = more ciliated cells; details: 10 µM; 48 h; siRNA: siScr
mIMCD3 [3] = assay: robust z score of cilia incidence (% cells with single cilium) vs plate controls; higher = more ciliated cells (rescue of cilia loss); details: 10 µM; 48 h; siRNA: siRpgrip1l
mIMCD3 [4] = assay: robust z cell number difference from vehicle control (robust z score difference); higher = more cells; details: 10 µM, 48 h
mIMCD3 [5] = assay: robust z cilia incidence difference from vehicle control (robust z score difference); higher = more ciliated cells; details: 10 µM; 48 h; siRNA: siScr
mIMCD3 [6] = assay: robust z cilia incidence difference from vehicle control (robust z score difference); higher = more ciliated cells (rescue); details: 10 µM; 48 h; siRNA: siRpgrip1l

Structure (SMILES)	robust z score of cell number (mIMCD3 [1]; siRNA: siRpgrip1l)	robust z score of cell number (mIMCD3 [1]; siRNA: siScr)	robust z score of cilia incidence (mIMCD3 [2])	robust z score of cilia incidence (mIMCD3 [3])	robust z cell number difference (mIMCD3 [4]; siRNA: siRpgrip1l)	robust z cell number difference (mIMCD3 [4]; siRNA: siScr)	robust z cilia incidence difference (mIMCD3 [5])	robust z cilia incidence difference (mIMCD3 [6])
Cc1ccc2c(=O)c3ccccc3n(CCCN)c2c1C	-32.4 ± 10	-141 ± 110	-65.6 ± 12	-57.9 ± 7.3				
NS(=O)(=O)Cc1noc2ccccc12 [Zonisamide]	-4.84 ± 0.79	-30.6 ± 29	-1.48 ± 7.2	-11 ± 0.81				
c1ccc(C(O[C@@H]2CCCN(CCc3ccc4c(c3)OCO4)C2)c2ccccc2)cc1 [Zamifenacin fumarate]	-28.9 ± 12	-134 ± 110	-43.7 ± 7	-42.9 ± 13				
CC1CCN(CCCC(=O)c2ccc(F)cc2)CC1 [Melperone hydrochloride]	-6.01 ± 3.4	-9.32 ± 4.7	-6.41 ± 0.46	-19.3 ± 4.4				
N[C@@H](CC(=O)Nc1ccc(Oc2cc(F)c(F)cc2Br)cc1)C(=O)O	-2.16 ± 5	-23.4 ± 32	-2.78 ± 2.9	-15.1 ± 3.1				
O=C(Nc1ccccc1)C12CC1C(=NO)c1ccccc1O2 (configuration not stated)	-13.7 ± 11	-1.26 ± 6.3	-3.28 ± 0.57	-23.5 ± 1.5				
COC(=O)c1sccc1S(=O)(=O)Nc1ccc(Nc2ccccc2)cc1OC	-29.9 ± 34	-10.6 ± 7.9	-12 ± 9.9	-26.6 ± 15				
CC1(C)CCC(C)(C)c2cc(C3(c4ccc(C(=O)O)cc4)OCCO3)ccc21	-28.8 ± 35	-5.86 ± 0.94	-6.14 ± 9.3	-22 ± 21				
C[C@H](NC(=O)/C(C#N)=C/c1ccc(O)c(O)c1)c1ccccc1 [Tyrphostin B44, (+) enantiomer]	-35.2 ± 32	-23.9 ± 20	-1.6 ± 1.5	-6.86 ± 3.4				
O=C(/C=C/c1ccc(O)c(O)c1)OCCc1ccccc1 [Caffeic acid phenethyl ester]	-31.8 ± 30	-14.3 ± 14	-26.1 ± 17	-28.2 ± 6.3				
COC(=O)[C@@H]1[C@H]2C[C@H]3c4[nH]c5ccccc5c4CCN3C[C@@H]2CC[C@@H]1O [Yohimbine hydrochloride]	-2.05 ± 0.06	-1.86 ± 4.8	4.13 ± 3.3	-7.58 ± 0.24	-5.32	-1.7 ± 6.8	3.01 ± 0.6	-7.65
Clc1cccc(Nc2nnc(-c3ccccc3)c3ccccc23)c1	-119 ± 97	-81 ± 44	-15 ± 7.3	-18.9 ± 4.7				
CN1C(=O)C(Cc2c[nH]c3ccccc23)NC1=S (configuration not stated) [Necrostatin-1]	-4.14 ± 4.4	6.19 ± 2.4	0.909 ± 2.7	-7.63 ± 2.3				
CC(C(O)c1ccc(O)cc1)N1CCC(Cc2ccccc2)CC1 (configuration not stated) [Ifenprodil hemitartrate]	-34.1 ± 20	-63.3 ± 64	-14.7 ± 0.6	-44.8 ± 7.3				
N[C@@H](CSC(c1ccccc1)(c1ccccc1)c1ccccc1)C(=O)O [S-Trityl-L-cysteine]	-0.804 ± 2.3	-1.45 ± 4.7	3.43 ± 2.2	-3.53 ± 5.4	-4.84	-1.79 ± 4.2	2.11 ± 2.1	-2.71
C[C@H]1O[C@H](O[C@H]2[C@H](O)[C@@H](O)[C@@H](O[C@H]3[C@H](O)[C@@H](O)C(O)O[C@@H]3CO)O[C@@H]2CO)[C@H](O)[C@@H](O)[C@@H]1N[C@H]1C=C(CO)[C@@H](O)[C@H](O)[C@H]1O (some centres not stated) [Acarbose]	-9.2 ± 4.3	-60.2 ± 65	-11.7 ± 12	-12.4 ± 3				
Nc1nc(N)nc(-c2cc(Cl)ccc2Cl)n1 [Irsogladine maleate]	-3.78 ± 3.2	-14.5 ± 15	1.58 ± 1.2	-13.8 ± 0.38				
S=C(S)N1CCCC1 [Pyrrolidinedithiocarbamate ammonium]	-13.9 ± 4.6	-15 ± 2.7	-5.47 ± 0.67	-7.59 ± 0.46				
COc1nc(C)nc(Cl)c1NC1=NCCN1 [Moxonidine hydrochloride]	-3.96 ± 4.4	-3.4 ± 6.7	-11.3 ± 14	-10.3 ± 5.6				
CC(C)NCC(O)COc1cccc2[nH]ccc12 (configuration not stated) [Pindolol]	3.41 ± 7	0.679 ± 9.6	0.872 ± 3.1	-6.96 ± 6	-7.75	-8.49 ± 1.5	-1.26 ± 0.28	-12.1
Oc1ccc(-c2nc3cc(O)cc(Br)c3o2)cc1	-28.2 ± 28	-12.7 ± 10	-12.1 ± 1.7	-6.37 ± 1.8				
CN1CCC(Nc2ncc3ncnc(Nc4ccc(F)c(Cl)c4)c3n2)CC1 [BIBX 1382 dihydrochloride]	-20.6 ± 9.8	-16.1 ± 0.92	-17.5 ± 12	-23.1 ± 13				
CN1CCN(C(=O)c2nc3ccc(Cl)cc3[nH]2)CC1	-3.97 ± 2.4	-3.07 ± 1.9	0.348 ± 1.3	-9.95 ± 6.4				
Cc1cccc(Nc2cc(Cl)nc(SCC(=O)O)n2)c1C	-8.19 ± 9.6	3.16 ± 0.65	-1.49 ± 1.2	-7.92 ± 0.15	-12.2	-8.49 ± 3.1	-1.07 ± 0.11	-4.86
CC1Nc2ccc(Cl)cc2S(=O)(=O)N1 (configuration not stated)	-5.15 ± 4.7	-2.95 ± 0.91	0.967 ± 0.13	-11.9 ± 2.7	-1.89	-1.5 ± 2.5	2.02 ± 3.9	-0.609
Cc1c(OCC(F)(F)F)ccnc1C[S+]([O-])c1nc2ccccc2[nH]1 (configuration not stated) [Lansoprazole]	-6.98 ± 2.1	-2.04 ± 2	0.622 ± 2.2	-20.2 ± 1.9				
CC(=O)O[C@@H]1C[C@H]2C(C)(C)C(=O)C=C[C@]2(C)[C@H]2CC[C@@]3(C)[C@H](c4ccoc4)OC(=O)[C@H]4O[C@]43[C@@]21C [Gedunin]	-12 ± 12	-6.06 ± 0.97	-11.9 ± 3.7	-15.2 ± 2.4				
Nc1ncnc2nc(-c3ccc(N4CCOCC4)nc3)cc(-c3cccc(Br)c3)c12 [ABT 702 dihydrochloride]	-10.9 ± 4.8	-4.1 ± 5.4	-2.7 ± 2.9	-11.9 ± 8.7				

Among those listed so far, these have an NH in an aromatic ring.
Structure (SMILES)	robust z score of cell number (mIMCD3 [1]; siRNA: siRpgrip1l)	robust z score of cell number (mIMCD3 [1]; siRNA: siScr)	robust z score of cilia incidence (mIMCD3 [2])	robust z score of cilia incidence (mIMCD3 [3])	robust z cell number difference (mIMCD3 [4]; siRNA: siRpgrip1l)	robust z cell number difference (mIMCD3 [4]; siRNA: siScr)	robust z cilia incidence difference (mIMCD3 [5])	robust z cilia incidence difference (mIMCD3 [6])
COC(=O)[C@@H]1[C@H]2C[C@H]3c4[nH]c5ccccc5c4CCN3C[C@@H]2CC[C@@H]1O [Yohimbine hydrochloride]	-2.05 ± 0.06	-1.86 ± 4.8	4.13 ± 3.3	-7.58 ± 0.24	-5.32	-1.7 ± 6.8	3.01 ± 0.6	-7.65
CN1C(=O)C(Cc2c[nH]c3ccccc23)NC1=S (configuration not stated) [Necrostatin-1]	-4.14 ± 4.4	6.19 ± 2.4	0.909 ± 2.7	-7.63 ± 2.3				
CC(C)NCC(O)COc1cccc2[nH]ccc12 (configuration not stated) [Pindolol]	3.41 ± 7	0.679 ± 9.6	0.872 ± 3.1	-6.96 ± 6	-7.75	-8.49 ± 1.5	-1.26 ± 0.28	-12.1
CN1CCN(C(=O)c2nc3ccc(Cl)cc3[nH]2)CC1	-3.97 ± 2.4	-3.07 ± 1.9	0.348 ± 1.3	-9.95 ± 6.4				
Cc1c(OCC(F)(F)F)ccnc1C[S+]([O-])c1nc2ccccc2[nH]1 (configuration not stated) [Lansoprazole]	-6.98 ± 2.1	-2.04 ± 2	0.622 ± 2.2	-20.2 ± 1.9				
